For some of these results: One purity is given for all peptides; the source may state it once. Strings that start with PEPTIDE1 are HELM notation: dots part the residues, brackets hold end groups and non-standard residues.
Legend:
[1] = solution-phase peptide synthesis; HATU, DIPEA; conditions: whole synthesis, TFA salt
[2] = general procedure: solution-phase peptide synthesis; HATU, DIPEA; conditions: whole synthesis; for final HPLC purity: HPLC Agilent 1200, Onyx monolithic HD-C18, TFA salt; for isolated yield: overall (10 steps), TFA salt

Substance | isolated yield ([1]; overall (12 steps)) [%] | final HPLC purity [2] [%] | isolated yield ([1]; overall (10 steps)) [%] | isolated yield [2] [%]
PEPTIDE1{K.K.P.[dW].I.[TMSAla]}$$$$V2.0 | 11 | > 95 |  | 
H-Lysψ[CH2NH]Lys-Sip-Tyr-Ile-TMSAla-OH |  |  | 22 | 
H-Lysψ[CH2NH]Lys-Pro-Lys-Ile-TMSAla-OH |  | > 95 |  | 14
H-Lysψ[CH2NH]Lys-Pro-Lys-Ile-Leu-OH |  | > 95 |  | 16
